# Experimental data published in patent publication US10105443B2, “Sustained-release drug carrier composition” (POLYPID LTD., priority 2008, dated 2018).
# At least one structure is not confirmed: it was looked up by name or label, or the drawing left a doubt.
# Assay: Influence of polymer/lipid composition of the matrix on release rate of the entrapped agent
# Assay type: physicochemical
# Settings: matrix PLGA (75:25), DPPC
# Description: The influence of different polymer/lipid compositions on the release rate of a given drug was measured using fluorescein entrapped within a matrix compositing PLGA (75:25), DPPC as the main phospholipid and varying amounts of lauric acid (LA) and phosphatidylethanolamine (PE) having saturated fatty acid moieties of at least 14 carbons. […] The release lasted between about 20 to about 110 days when LA:PE w/w % ratio was varied between 10:10 to 0:0 respectively (vs. the total mass of the formulation). The drug release profile from bone particles coated with matrix formulation comprising PE versus bone particles coated with matrix formulation comprising cholesterol was compared.
# The fact that different polymer/lipid compositions influence the release rate can be used to fulfill different clinical needs. […] In contrast, when the antibiotic drug, DOX, was associated with a slow degrading polymer such as PLGA 85:15 and a 18:0 phospholipid such as DSPC, complete release of the drug was accomplished after more than 50 days (FIG. 8).
smiles,measurement,setting,value
O=C1OC2(c3ccc(O)cc3Oc3cc(O)ccc32)c2ccccc21 [fluorescein],expected release period of 90% of the entrapped molecule,LA:PE w/w % 0:0,about 110 days
same,expected release period of 90% of the entrapped molecule,LA:PE w/w % 10:10 vs. total mass of formulation,about 20 days
